Data as given in PubChem BioAssay AID1159600 (NIAID, 2016).
Assay: 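Which TLR pathway genes support TNF promoter activation by R848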 (primary screen). Cells: human THP-1 TNF reporter clone B5, made macrophage-like with PMA. Knock-down reagent: single siRNA against human genes. Timing: 4 h ligand stimulation, assayed 48 to 72 h after siRNA transfection. Challenge: R848 (TLR7/8 agonist) for 4 hours before lysis; dose not given. Measurement: 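Robust z-score of firefly over renilla TNF promoter signal after 4 h R848, plate median/MAD normalised, relative to negative controls, averaged across replicates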. Reading the numbers: TNF reporter z-score: higher = stronger TNF promoter reporter signal after R848. Active means: 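Active where mean z-score is about 1.5 or more from zero in either direction; depositor grades use cut-offs of 1, 1.5, 2 and 2.5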. Calls: active = strong change in TNF reporter (up or down); inactive = little change.
Here is an unselected part of 756 reagents. 134 of all reagents (18%) were called active. 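Active includes both reduced and increased reporter signal, though most active siRNAs reduce it; R848 dose unknown.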 Unmarked entries are inactive. The numbers tell different reagents against one gene apart. Not given: the amount of reagent.

Depletion of CYLD (GeneID 1540) #1 resulted in: TNF reporter z-score -0.531.
Against CYLD (GeneID 1540) #2, the values are TNF reporter z-score -1.47.
Depletion of CYLD (GeneID 1540) #3 gave: TNF reporter z-score 1.04.
CYLD (GeneID 1540) #4 showed TNF reporter z-score -0.793.
CYLD (GeneID 1540) #5 gave TNF reporter z-score -0.991.
With knock-down of CYLD (GeneID 1540) #6 the results were TNF reporter z-score -0.455.
Silencing of PIK3R1 (GeneID 5295) #1 gave: TNF reporter z-score 1.39.
PIK3R1 (GeneID 5295) #2 showed TNF reporter z-score -0.51.
PIK3R1 (GeneID 5295) #3 scored TNF reporter z-score 0.298.
PIK3R1 (GeneID 5295) #4 showed TNF reporter z-score -0.66.
For PIK3R1 (GeneID 5295) #5, the values are TNF reporter z-score -2.36 (active).
Depletion of PIK3R1 (GeneID 5295) #6 gave: TNF reporter z-score 1.18.
Knock-down of MAP2K7 (GeneID 5609) #1 gave: TNF reporter z-score -0.432.
With knock-down of MAP2K7 (GeneID 5609) #2, the screen gave TNF reporter z-score -1.27.
For MAP2K7 (GeneID 5609) #3, the values are TNF reporter z-score -0.711.
Depletion of MAP2K7 (GeneID 5609) #4 came out at: TNF reporter z-score 1.23.
MAP2K7 (GeneID 5609) #5 gave TNF reporter z-score -3.11 (active).
Silencing of MAP2K7 (GeneID 5609) #6 gave: TNF reporter z-score -0.852.
After knock-down of MAP2K6 (GeneID 5608) #1, the screen gave TNF reporter z-score -1.22.
Against MAP2K6 (GeneID 5608) #2, the values are TNF reporter z-score -0.566.
For MAP2K6 (GeneID 5608) #3, the values are TNF reporter z-score 0.0239.
For MAP2K6 (GeneID 5608) #4, the entry reads TNF reporter z-score -0.853.
Silencing of MAP2K6 (GeneID 5608) #5 came out at: TNF reporter z-score 0.533.
With knock-down of MAP2K6 (GeneID 5608) #6, the screen gave TNF reporter z-score -0.7.
Against TRADD (GeneID 8717) #1, the values are TNF reporter z-score -3.44 (active).
Against TRADD (GeneID 8717) #2, the values are TNF reporter z-score -0.934.
TRADD (GeneID 8717) #3 gave TNF reporter z-score 0.785.
Against TRADD (GeneID 8717) #4, the values are TNF reporter z-score -0.205.
Silencing of TRADD (GeneID 8717) #5 gave: TNF reporter z-score 1.02.
Knock-down of TRADD (GeneID 8717) #6 resulted in: TNF reporter z-score -3.11 (active).
IL12B (GeneID 3593) #1 showed TNF reporter z-score -0.456.
For IL12B (GeneID 3593) #2, the entry reads TNF reporter z-score 0.164.
Against IL12B (GeneID 3593) #3, the entry reads TNF reporter z-score -0.207.
After knock-down of IL12B (GeneID 3593) #4, the screen gave TNF reporter z-score -0.948.
After knock-down of IL12B (GeneID 3593) #5, the record shows TNF reporter z-score -1.25.
After knock-down of IL12B (GeneID 3593) #6 the results were TNF reporter z-score -1.29.
TNFAIP3 (GeneID 7128) #1 scored TNF reporter z-score 0.829.
With knock-down of TNFAIP3 (GeneID 7128) #2, the record shows TNF reporter z-score 0.86.
Silencing of TNFAIP3 (GeneID 7128) #3 gave: TNF reporter z-score 1.79 (active).
For TNFAIP3 (GeneID 7128) #4, the values are TNF reporter z-score 0.527.
After knock-down of TNFAIP3 (GeneID 7128) #5, the screen gave TNF reporter z-score 1.03.
For TNFAIP3 (GeneID 7128) #6, the values are TNF reporter z-score -0.972.
Silencing of IRAK3 (GeneID 11213) #1 came out at: TNF reporter z-score 1.47.
IRAK3 (GeneID 11213) #2 scored TNF reporter z-score 0.298.
Silencing of IRAK3 (GeneID 11213) #3 gave: TNF reporter z-score 0.0575.
For IRAK3 (GeneID 11213) #4 the deposit lists TNF reporter z-score -0.47.
IRAK3 (GeneID 11213) #5 scored TNF reporter z-score -0.232.
Against IRAK3 (GeneID 11213) #6 the deposit lists TNF reporter z-score -0.423.
